Reference: patent US20250262294A1
These are yes or no findings as the source states them, for the method shown. Binding can be weak; no strength is given.

What was measured:
[1] = molecular target: chicken CD83 ectodomain (recombinant receptor protein from S2 cells) (chicken); assay: ELISA on chicken CD83 receptor protein, unpurified culture medium
[2] = molecular target: chicken CD83 ectodomain (recombinant receptor protein from S2 cells) (chicken); assay: ELISA on chicken CD83 receptor protein
[3] = molecular target: chicken CD83 ectodomain (recombinant receptor protein from S2 cells) (chicken); assay: ELISA
[4] = molecular target: chicken CD83 ectodomain (recombinant receptor protein from S2 cells) (chicken); assay: ELISA on chicken CD83 receptor protein, unpurified protein

Measured: binding

B1: IG10 scFv-CD83 scFv bispecific scFv antibody (bispecific antibody)
chain: MDILMTQSPSSMSVSLGDTVIITCHASQGISSNIGWLQQKPGKSFKGLIYHATNLEDGVPSRFSGGGSGADYSLTISSLESEDFADYYCVQYGQFPFTFGSGTKLEIKGGGGSGGGGSGGGGSEVQLQQSVAELVRPGASVKLSCTASGFNIKNTYMHWVKQRPEQGLEWIGRIDPANGNTRYAPKFQGKATITADTSSNTAYLQLSSLTSEDTAIYYCARYYFGPDYWGQGTTLTVSSGGGGSGGGGSGGGGSGGGGSDIVMTQSPSSLAVSVGQKVTMSCTSSQVLLHSPNQKNYLAWYQQKPGQSPKLLVYFASTRESGVPDRFTGSGSGTDFTLTISSVQAEDLAVYYCQQHYSTPLTFGAGTKLELKGGGGSGGGGSGGGGSEVQLQQSGPELVKPGASVKISCKASGYTFTDYYINWVKQSHGKSLEWIGDINPTNGDSTYSQKFKGKATLTVDKSSSTAYMELRSLTSEVSAVYYCARDYAMDYWGQGTSVTVSSEPEA
binds: all assays above
